From patent publication US20070077628A1
These are yes or no findings as the source states them, for the method shown. Binding seen in cells or lysates may run through a third protein. Some binding calls cover weakened binding; strength is not graded here. Sequences can lack the tags named with a protein.

Amino acid sequences for entries named in this document (tags omitted). Residues count along the entry.
UniProt Q99816, residues 2-390: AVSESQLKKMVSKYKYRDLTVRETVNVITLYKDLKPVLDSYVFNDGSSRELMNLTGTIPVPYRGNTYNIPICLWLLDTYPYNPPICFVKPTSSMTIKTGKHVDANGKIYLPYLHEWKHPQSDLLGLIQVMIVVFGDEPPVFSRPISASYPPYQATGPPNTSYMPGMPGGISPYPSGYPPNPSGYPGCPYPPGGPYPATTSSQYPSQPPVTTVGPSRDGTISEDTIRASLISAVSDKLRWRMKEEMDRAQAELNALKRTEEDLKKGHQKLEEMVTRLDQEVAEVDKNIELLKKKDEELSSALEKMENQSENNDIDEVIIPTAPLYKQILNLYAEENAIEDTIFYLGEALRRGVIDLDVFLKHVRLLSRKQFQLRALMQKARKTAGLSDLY

Biological target: endogenous Tsg101 of HEK-293T cells (UniProt Q99816)
Assay: co-immunoprecipitation with an antibody to endogenous Tsg101, HEK-293T cells expressing HA-hTa1

B1: HA-tagged human Ta1, wild type (enzyme, not shown: small tags and cut ends)
chain: MPLFFRKRKPSEEARKRLEYQMCLAKEAGADDILDISKCELSEIPFGAFATCKVLQKKVLIVHTNHLTSLLPKSCSLLSLATIKVLDLHDNQLTALPDDLGQLTALQVLNVERNQLMQLPRSIGNLTQLQTLNVKDNKLKELPDTVGELRSLRTLNISGNEIQRLPQMLAHVRTLEMLSLDASAMVYPPREVCGAGTAAILQFLCKESGLEYYPPSQYLLPILEQDGIENSRDSPDGPTDRFSREELEWQNRFSDYEKRKEQKMLEKLEFERRLELGQREHTQLLQQSSSQKDEILQTVKEEQSRLEQGLSEHQRHLDAERQRLQEQLKQTEQNISSRIQKLLQDNQRQKKSSEILKSLENERIRMEQLMSITQEETESLRRRDVASAMQQMLTESCKNRLIQMAYESQRQNLVQQACSSMAEMDERFQQILSWQQMDQNKAISQILQESAMQKAAFEALQVKKDLMHRQIRSQIKLIETELLQLTQLELKRKSLDTESLQEMISEQRWALSSLLQQLLKEKQQREEELREILTELEAKSETRQENYWLIQYQRLLNQKPLSLKLQEEGMERQLVALLEELSAEHYLPIFAHHRLSLDLLSQMSPGDLAKVGVSEAGLQHEILRRVQELLDAARIQPELKPPMGEVVTPTAPQEPPESVRPSAPPAELEVQASECVVCLEREAQMIFLNCGHVCCCQQCCQPLRTCPLCRQDIAQRLRIYHSS
With B1 the binding was “binds”.
